Results reported in publication PMC10176095.
No constants are given. Whether binding was seen depends on the method and setting. In cells and extracts the contact can be indirect. Some results given as binding are weak or reduced against the parent protein; the word gives no strength.

By UniProt entry, the sequences of proteins in these tests, tags left out. Residues count along the entry.
UniProt P18065, residues 36-325: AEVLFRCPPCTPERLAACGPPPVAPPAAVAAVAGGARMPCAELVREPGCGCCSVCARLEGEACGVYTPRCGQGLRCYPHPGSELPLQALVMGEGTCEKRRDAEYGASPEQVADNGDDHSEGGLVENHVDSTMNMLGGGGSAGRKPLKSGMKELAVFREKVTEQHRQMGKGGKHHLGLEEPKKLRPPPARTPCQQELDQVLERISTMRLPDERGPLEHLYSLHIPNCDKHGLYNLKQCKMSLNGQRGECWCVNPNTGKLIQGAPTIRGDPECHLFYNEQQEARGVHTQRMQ

Molecular target: Epidermal Growth Factors Receptor (human (from sEVs of human umbilical cord MSCs, taken up by RAW264.7 cells)) (UniProt P00533)
Assay: co-IP; RAW264.7 cells that received 4D-sEVs, lysed in RIPA buffer with protease and phosphatase inhibitors; lysate pre-cleared, incubated with anti-IGFBP2, anti-EGFR or IgG (1:100) 2 h at room temperature, Protein A+G agarose overnight at 4 °C, washed 3 times with PBS, Western blot

binding: binds
Substance: Insulin-like Growth Factor Binding Protein 2 (from UniProt P18065 36-325)
